{"sequences": {"note": "Chains of the proteins cited; added tags and fusions are not shown.", "UniProt P78527": "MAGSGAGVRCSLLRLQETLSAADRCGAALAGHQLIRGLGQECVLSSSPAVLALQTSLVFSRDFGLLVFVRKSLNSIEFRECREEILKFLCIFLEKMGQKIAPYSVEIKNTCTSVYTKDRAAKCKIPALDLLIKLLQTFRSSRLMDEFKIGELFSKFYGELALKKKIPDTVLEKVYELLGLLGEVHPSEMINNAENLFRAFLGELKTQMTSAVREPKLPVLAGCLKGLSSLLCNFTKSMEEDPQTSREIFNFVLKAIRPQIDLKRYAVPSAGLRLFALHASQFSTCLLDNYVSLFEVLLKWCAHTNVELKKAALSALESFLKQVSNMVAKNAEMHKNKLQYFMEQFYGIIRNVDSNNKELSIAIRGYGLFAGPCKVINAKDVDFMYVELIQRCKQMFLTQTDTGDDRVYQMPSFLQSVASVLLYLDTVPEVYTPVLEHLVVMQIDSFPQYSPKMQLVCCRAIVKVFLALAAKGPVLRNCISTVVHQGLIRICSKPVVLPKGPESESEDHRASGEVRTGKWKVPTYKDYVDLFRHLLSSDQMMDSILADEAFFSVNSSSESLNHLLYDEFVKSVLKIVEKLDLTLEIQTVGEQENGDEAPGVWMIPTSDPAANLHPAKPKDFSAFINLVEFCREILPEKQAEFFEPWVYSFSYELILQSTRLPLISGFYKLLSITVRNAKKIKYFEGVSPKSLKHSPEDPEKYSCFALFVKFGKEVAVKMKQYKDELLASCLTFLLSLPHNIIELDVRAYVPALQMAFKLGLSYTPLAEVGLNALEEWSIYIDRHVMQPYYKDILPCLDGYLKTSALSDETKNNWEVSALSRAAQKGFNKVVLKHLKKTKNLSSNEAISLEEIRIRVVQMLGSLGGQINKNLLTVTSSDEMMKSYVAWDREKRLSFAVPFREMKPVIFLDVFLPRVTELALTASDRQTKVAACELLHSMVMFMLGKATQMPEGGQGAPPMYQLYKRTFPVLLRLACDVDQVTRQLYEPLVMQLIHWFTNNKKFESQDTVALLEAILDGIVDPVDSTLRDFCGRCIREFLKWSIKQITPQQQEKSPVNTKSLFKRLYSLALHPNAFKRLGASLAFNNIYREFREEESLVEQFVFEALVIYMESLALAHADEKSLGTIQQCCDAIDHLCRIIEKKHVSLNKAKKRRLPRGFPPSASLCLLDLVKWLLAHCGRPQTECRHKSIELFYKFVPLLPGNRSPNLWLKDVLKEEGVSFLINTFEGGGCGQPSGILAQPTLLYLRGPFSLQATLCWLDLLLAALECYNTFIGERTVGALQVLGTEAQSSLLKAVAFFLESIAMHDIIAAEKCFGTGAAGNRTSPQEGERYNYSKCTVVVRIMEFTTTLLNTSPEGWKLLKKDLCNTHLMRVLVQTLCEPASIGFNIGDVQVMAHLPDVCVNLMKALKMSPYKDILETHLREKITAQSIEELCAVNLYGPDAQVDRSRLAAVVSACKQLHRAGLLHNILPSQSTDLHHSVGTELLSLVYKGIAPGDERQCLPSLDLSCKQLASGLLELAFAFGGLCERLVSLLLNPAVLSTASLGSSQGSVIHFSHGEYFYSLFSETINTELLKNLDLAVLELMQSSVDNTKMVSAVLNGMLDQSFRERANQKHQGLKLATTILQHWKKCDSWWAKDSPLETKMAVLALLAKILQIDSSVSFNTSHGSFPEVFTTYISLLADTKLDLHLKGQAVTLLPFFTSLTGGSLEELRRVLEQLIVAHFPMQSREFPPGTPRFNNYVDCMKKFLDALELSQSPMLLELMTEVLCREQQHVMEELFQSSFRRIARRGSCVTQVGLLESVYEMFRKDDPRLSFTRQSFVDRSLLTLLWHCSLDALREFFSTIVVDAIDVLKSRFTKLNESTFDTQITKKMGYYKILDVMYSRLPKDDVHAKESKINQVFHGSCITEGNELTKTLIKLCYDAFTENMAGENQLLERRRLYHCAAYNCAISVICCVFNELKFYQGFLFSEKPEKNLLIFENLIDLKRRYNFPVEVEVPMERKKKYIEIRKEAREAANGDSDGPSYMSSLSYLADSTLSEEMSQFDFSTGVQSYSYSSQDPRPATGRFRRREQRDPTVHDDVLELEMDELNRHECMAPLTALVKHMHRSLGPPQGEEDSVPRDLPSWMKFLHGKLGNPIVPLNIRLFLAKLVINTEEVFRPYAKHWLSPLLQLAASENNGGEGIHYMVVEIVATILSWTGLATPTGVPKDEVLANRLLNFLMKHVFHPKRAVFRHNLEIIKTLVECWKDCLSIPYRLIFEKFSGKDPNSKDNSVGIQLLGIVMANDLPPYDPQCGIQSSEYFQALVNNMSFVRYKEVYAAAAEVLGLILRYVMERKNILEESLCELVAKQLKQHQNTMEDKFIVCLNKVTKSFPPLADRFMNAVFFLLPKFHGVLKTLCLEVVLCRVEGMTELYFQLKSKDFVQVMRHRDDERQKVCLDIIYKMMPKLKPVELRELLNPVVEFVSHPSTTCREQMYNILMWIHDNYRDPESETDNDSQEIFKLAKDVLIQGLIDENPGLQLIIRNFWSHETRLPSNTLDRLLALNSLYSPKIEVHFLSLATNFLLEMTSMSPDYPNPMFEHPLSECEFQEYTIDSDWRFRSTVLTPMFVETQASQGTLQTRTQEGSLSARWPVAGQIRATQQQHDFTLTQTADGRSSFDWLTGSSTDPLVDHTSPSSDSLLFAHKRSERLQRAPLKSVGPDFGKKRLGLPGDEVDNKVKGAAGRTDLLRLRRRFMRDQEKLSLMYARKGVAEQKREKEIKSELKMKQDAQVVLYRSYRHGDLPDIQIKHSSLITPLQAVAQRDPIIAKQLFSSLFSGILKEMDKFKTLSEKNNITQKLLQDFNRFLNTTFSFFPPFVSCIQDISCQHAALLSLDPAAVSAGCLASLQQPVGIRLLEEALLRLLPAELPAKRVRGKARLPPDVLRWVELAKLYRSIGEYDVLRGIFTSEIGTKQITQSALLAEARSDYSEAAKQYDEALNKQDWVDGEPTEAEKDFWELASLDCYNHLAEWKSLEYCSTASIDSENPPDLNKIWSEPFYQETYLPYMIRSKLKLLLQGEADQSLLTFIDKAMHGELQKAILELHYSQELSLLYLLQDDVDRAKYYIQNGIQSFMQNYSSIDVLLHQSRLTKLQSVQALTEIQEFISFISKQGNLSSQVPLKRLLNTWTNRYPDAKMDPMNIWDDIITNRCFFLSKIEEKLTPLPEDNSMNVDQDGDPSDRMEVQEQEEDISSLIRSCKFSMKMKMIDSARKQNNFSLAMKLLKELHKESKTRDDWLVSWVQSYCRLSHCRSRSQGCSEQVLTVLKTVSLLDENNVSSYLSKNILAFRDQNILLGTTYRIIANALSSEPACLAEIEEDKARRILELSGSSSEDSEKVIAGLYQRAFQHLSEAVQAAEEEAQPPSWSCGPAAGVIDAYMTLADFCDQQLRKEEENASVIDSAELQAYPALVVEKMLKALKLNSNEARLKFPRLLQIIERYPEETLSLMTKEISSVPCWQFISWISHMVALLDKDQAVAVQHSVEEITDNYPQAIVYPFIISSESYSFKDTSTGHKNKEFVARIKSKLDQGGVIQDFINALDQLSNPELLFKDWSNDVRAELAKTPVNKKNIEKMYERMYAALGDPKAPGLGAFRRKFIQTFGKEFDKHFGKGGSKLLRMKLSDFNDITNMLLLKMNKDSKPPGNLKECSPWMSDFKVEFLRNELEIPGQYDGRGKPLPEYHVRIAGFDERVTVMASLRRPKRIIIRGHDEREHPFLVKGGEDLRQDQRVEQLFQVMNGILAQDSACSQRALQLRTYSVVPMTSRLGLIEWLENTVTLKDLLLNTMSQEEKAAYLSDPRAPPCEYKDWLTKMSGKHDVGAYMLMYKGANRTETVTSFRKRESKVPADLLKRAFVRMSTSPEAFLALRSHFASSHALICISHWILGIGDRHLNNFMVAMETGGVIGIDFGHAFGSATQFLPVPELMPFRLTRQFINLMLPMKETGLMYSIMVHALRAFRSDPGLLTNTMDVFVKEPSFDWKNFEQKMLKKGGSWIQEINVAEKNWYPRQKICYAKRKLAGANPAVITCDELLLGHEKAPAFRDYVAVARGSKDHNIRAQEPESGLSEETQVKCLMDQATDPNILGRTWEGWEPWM", "UniProt Q12905": "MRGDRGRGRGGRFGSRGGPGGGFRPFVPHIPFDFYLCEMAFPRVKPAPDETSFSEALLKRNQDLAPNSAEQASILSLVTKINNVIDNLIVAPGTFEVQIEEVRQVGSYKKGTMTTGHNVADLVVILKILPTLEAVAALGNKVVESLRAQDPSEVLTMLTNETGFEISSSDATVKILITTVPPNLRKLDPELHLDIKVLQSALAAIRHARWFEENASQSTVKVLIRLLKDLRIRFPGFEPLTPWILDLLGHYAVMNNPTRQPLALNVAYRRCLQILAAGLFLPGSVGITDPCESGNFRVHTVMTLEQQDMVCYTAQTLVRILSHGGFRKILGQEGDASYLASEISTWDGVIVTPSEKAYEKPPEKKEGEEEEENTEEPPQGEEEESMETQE", "UniProt P06748": "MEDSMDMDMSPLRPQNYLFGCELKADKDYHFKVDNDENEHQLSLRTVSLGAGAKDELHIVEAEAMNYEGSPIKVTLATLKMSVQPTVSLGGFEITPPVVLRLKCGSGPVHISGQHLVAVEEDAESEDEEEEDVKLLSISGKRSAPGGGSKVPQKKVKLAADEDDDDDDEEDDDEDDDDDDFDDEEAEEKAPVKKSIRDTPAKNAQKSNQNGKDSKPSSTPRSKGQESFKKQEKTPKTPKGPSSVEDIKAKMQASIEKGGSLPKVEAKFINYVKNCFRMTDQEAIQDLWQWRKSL"}, "source": "paper PMC12915084", "about": "“A dsRNA Viral Transcriptional Regulator Evades Innate Immunity by Hijacking Host CoTranscription Factor DHX9”", "molecules": {"B1": {"name": "ILF3 (protein, UniProt Q12906 1-894)", "chain": "MRPMRIFVNDDRHVMAKHSSVYPTQEELEAVQNMVSHTERALKAVSDWIDEQEKGSSEQAESDNMDVPPEDDSKEGAGEQKTEHMTRTLRGVMRVGLVAKGLLLKGDLDLELVLLCKEKPTTALLDKVADNLAIQLAAVTEDKYEILQSVDDAAIVIKNTKEPPLSLTIHLTSPVVREEMEKVLAGETLSVNDPPDVLDRQKCLAALASLRHAKWFQARANGLKSCVIVIRVLRDLCTRVPTWGPLRGWPLELLCEKSIGTANRPMGAGEALRRVLECLASGIVMPDGSGIYDPCEKEATDAIGHLDRQQREDITQSAQHALRLAAFGQLHKVLGMDPLPSKMPKKPKNENPVDYTVQIPPSTTYAITPMKRPMEEDGEEKSPSKKKKKIQKKEEKAEPPQAMNALMRLNQLKPGLQYKLVSQTGPVHAPIFTMSVEVDGNSFEASGPSKKTAKLHVAVKVLQDMGLPTGAEGRDSSKGEDSAEETEAKPAVVAPAPVVEAVSTPSAAFPSDATAEQGPILTKHGKNPVMELNEKRRGLKYELISETGGSHDKRFVMEVEVDGQKFQGAGSNKKVAKAYAALAALEKLFPDTPLALDANKKKRAPVPVRGGPKFAAKPHNPGFGMGGPMHNEVPPPPNLRGRGRGGSIRGRGRGRGFGGANHGGYMNAGAGYGSYGYGGNSATAGYSQFYSNGGHSGNASGGGGGGGGGSSGYGSYYQGDNYNSPVPPKHAGKKQPHGGQQKPSYGSGYQSHQGQQQSYNQSPYSNYGPPQGKQKGYNHGQGSYSYSNSYNSPGGGGGSDYNYESKFNYSGSGGRSGGNSYGSGGASYNPGSHGGYGGGSGGGSSYQGKQGGYSQSNYNSPGSGQNYSGPPSSYQSSQGGYGRNADHSMNYQYR"}, "B2": {"name": "HNRNPL (protein, UniProt P14866 1-589)", "chain": "MSRRLLPRAEKRRRRLEQRQQPDEQRRRSGAMVKMAAAGGGGGGGRYYGGGSEGGRAPKRLKTDNAGDQHGGGGGGGGGAGAAGGGGGGENYDDPHKTPASPVVHIRGLIDGVVEADLVEALQEFGPISYVVVMPKKRQALVEFEDVLGACNAVNYAADNQIYIAGHPAFVNYSTSQKISRPGDSDDSRSVNSVLLFTILNPIYSITTDVLYTICNPCGPVQRIVIFRKNGVQAMVEFDSVQSAQRAKASLNGADIYSGCCTLKIEYAKPTRLNVFKNDQDTWDYTNPNLSGQGDPGSNPNKRQRQPPLLGDHPAEYGGPHGGYHSHYHDEGYGPPPPHYEGRRMGPPVGGHRRGPSRYGPQYGHPPPPPPPPEYGPHADSPVLMVYGLDQSKMNCDRVFNVFCLYGNVEKVKFMKSKPGAAMVEMADGYAVDRAITHLNNNFMFGQKLNVCVSKQPAIMPGQSYGLEDGSCSYKDFSESRNNRFSTPEQAAKNRIQHPSNVLHFFNAPLEVTEENFFEICDELGVKRPSSVKVFSGKSERSSSGLLEWESKSDALETLGFLNHYQMKNPNGPYPYTLKLCFSTAQHAS"}}, "note": "These are yes or no findings as the source states them, for the method shown. Binding seen in cells or lysates may run through a third protein. A yes stands for co-enrichment or nearness to the bait. Other partners may have been found.", "data": [{"target": "pNTAP-σ3 (outer capsid protein σ3 of the T1L REOV strain in the pNTAP-A vector) (Mammalian orthoreovirus (REOV), strain T1L) (UniProt P07939)", "test": "affinity purification with mass spectrometry; tandem affinity purification of pNTAP-σ3 from transfected cells (streptavidin resin, then calmodulin resin), LC-MS/MS; pNTAP empty vector as control", "values": [{"molecule": "PRKDC (from UniProt P78527 1-4128)", "binding": "binds"}, {"molecule": "ILF2 (from UniProt Q12905 1-390)", "binding": "binds"}, {"molecule": "NPM1 (from UniProt P06748 1-294)", "binding": "binds"}, {"molecule": "B1", "binding": "binds"}, {"molecule": "B2", "binding": "binds"}]}]}
